Measurements published in PMC5643558.

Sequences of proteins named here, by UniProt entry; tags and fusion partners are left off.
UniProt P31751: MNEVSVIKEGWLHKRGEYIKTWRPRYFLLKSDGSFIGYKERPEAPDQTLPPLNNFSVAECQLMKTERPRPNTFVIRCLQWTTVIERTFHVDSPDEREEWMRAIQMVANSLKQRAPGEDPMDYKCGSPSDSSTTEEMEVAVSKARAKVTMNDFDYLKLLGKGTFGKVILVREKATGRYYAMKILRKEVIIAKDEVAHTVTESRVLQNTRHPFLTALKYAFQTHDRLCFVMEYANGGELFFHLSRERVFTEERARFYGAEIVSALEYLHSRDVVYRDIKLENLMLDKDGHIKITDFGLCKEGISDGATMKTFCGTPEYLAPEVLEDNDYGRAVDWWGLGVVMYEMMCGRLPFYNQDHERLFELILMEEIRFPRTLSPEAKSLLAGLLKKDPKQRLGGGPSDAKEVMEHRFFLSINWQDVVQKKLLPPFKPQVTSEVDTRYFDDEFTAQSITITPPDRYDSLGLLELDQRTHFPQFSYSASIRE
UniProt P19474: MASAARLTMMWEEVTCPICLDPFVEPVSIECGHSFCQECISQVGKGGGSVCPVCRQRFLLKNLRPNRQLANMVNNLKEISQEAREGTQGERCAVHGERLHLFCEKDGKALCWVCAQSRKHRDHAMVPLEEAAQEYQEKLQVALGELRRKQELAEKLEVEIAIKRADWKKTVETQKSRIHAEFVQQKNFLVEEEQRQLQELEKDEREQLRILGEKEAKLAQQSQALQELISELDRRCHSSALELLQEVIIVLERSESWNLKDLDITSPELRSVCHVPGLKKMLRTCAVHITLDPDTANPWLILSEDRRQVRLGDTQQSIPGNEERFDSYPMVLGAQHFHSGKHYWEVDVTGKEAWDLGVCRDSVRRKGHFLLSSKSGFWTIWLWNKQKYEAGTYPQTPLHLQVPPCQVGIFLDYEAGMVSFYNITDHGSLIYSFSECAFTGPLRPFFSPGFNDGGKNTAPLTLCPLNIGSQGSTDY
UniProt P31749: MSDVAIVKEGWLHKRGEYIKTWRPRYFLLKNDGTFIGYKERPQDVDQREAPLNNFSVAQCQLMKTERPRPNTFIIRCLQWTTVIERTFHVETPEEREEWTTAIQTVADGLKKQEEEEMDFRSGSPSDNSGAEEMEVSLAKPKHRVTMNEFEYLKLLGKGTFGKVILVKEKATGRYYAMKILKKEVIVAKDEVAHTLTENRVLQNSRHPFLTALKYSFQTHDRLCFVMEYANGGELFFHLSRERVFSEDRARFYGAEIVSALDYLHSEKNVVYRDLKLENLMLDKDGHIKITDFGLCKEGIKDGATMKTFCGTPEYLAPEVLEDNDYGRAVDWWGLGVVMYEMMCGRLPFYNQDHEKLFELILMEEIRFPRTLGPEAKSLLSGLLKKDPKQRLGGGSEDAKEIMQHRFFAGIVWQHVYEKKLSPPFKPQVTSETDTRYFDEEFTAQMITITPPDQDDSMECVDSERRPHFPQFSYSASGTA
UniProt Q9Y243: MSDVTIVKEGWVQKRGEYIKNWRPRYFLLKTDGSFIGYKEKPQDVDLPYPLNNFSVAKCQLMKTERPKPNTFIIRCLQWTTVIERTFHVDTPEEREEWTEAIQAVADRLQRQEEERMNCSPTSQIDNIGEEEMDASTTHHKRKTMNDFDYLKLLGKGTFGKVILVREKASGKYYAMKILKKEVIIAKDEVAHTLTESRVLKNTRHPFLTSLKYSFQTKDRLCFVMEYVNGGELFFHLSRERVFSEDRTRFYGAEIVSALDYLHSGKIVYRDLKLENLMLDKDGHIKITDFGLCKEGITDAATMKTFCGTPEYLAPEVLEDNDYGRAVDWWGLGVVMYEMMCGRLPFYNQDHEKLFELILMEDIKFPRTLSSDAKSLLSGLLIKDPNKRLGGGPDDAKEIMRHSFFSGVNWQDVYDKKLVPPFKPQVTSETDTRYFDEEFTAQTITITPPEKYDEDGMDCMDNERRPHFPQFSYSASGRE

Target: T1, endogenous PFKP (phosphofructokinase 1 platelet isoform) (human (endogenous in U251, U87/EGFR, U87/EGFRvIII and 293T)) (UniProt Q01813)
T1 sequence: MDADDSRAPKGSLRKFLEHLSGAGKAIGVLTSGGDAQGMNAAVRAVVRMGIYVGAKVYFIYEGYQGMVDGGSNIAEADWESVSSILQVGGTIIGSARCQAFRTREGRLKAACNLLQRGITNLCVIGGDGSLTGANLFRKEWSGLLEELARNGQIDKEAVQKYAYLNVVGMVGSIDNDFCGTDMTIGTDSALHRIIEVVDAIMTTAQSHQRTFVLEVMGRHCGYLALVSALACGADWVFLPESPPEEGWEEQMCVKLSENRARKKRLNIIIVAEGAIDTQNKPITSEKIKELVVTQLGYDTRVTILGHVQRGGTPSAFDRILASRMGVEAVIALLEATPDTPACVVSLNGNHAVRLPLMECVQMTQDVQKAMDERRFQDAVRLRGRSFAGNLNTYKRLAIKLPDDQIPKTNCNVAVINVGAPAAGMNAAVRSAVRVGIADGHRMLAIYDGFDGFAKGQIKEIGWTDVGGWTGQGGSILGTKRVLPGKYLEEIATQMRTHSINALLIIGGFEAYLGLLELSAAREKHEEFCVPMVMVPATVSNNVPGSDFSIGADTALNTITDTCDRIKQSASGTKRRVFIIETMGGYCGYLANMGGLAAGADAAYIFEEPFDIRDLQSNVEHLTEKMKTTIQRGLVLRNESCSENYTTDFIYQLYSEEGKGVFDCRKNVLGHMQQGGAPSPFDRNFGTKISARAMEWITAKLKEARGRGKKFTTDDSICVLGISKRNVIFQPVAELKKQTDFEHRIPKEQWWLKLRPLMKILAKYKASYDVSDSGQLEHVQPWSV
Assay: affinity purification with mass spectrometry; PFKP immunoprecipitated from U251 cells, LC-MS/MS of the immunoprecipitates

Row | binding | Substance
1 | binds | AKT2 (found in PFKP immunoprecipitates) (from UniProt P31751 1-481)
2 | binds | TRIM21 (tripartite motif-containing protein 21) in U251 and U87/EGFRvIII cells (from UniProt P19474 1-475)
3 | binds | AKT1 (found in PFKP immunoprecipitates) (from UniProt P31749 1-480)
4 | binds | AKT3 (found in PFKP immunoprecipitates) (from UniProt Q9Y243 1-479)

No constants are given. Whether binding was seen depends on the method and setting. Binding seen in cells or lysates may run through a third protein. These calls come from enrichment with a bait or labelling near it, and not all partners need be listed.
